Measurements taken from patent publication US20250319021A1, “COMPOSITION OF HYDROGEL LOADED WITH HORMONE” (VITALTE LIFESCIENCES INC., priority 2024, published 2025).
At least one structure is not confirmed: it was looked up by name or label, or the drawing left a doubt.

How the values were obtained:
[1] = Imaging of E2 particles and microspheres, diameter by ImageJ; type: physicochemical; details: solutions of 0.25%, 0.5% and 1.00% E2
[2] = E2 release assay: release of E2 from discs, pellets, powder and microspheres into incubation medium, free E2 by ELISA; type: physicochemical; details: 50 mL incubation medium, 37° C., 6 rpm; for E2 release level (accumulated concentration released into incubation media): day 3 / 72 hours

SMILES: C[C@]12CC[C@@H]3c4ccc(O)cc4CC[C@H]3[C@@H]1CC[C@@H]2O [Free E2 powder, Estradiol]
- average particle diameter [1]: 12-14 μm
- E2 release level (concentration released into incubation media) ([2]; day 1 / 24 hours): about 1.85 mg/L
- E2 release level (concentration released into incubation media) ([2]; day 2 / 48 hours): reached the saturation point of the incubation media
- E2 release level (accumulated concentration released into incubation media) [2]: maintained the saturation point concentration
- E2 release level (accumulated concentration released into incubation media) ([2]; listed as E2 powder): approximates the saturation level of E2 in the incubation medium
